Results reported in patent US9206125B2, “Use of compound binding to mSin3B that specifically binds to neuron restrictive silencer factor (NRSF)” (PUBLIC UNIVERSITY CORPORATION YOKOHAMA CITY UNIVERSITY, priority 2010, dated 2015).
At least one compound was matched to its structure with a doubt left. Some compounds share one wording; it may come from a single statement.

Legend:
[1] = test system: DAOY (human medulloblastoma cell strain); assay: MTT assay using a human medulloblastoma cell strain (Example 2, relative growth); format: cell-based; details: compound 100 μg/ml
Excerpt: Cell growth effects were examined on 3,5-dimethylpiperidyl 3-methyl-4-nitrophenyl ketone (compound 155) and 1-[4-(difluoromethoxy)phenyl]-2-(3,5-dimethylpiperidyl)ethan-1-one (compound A28) (MTT assay using a human medulloblastoma cell strain).
Compounds: 3,5-dimethylpiperidyl 3-methyl-4-nitrophenyl ketone (compound 155) (purchased from SPECS); 1-[4-(difluoromethoxy)phenyl]-2-(3,5-dimethylpiperidyl)ethan-1-one (compound A28) (purchased from Enamine)
Cell: DAOY (human medulloblastoma cell strain) (provided by Kanno, Department of Neurosurgery, School of Medicine, Yokohama City University)
(§1) Medium: DMEM (High Glucose, Nacalai Tesque)
Reagent for cell counting: MTT cell counting kit (Nacalai Tesque) MTT Assay: (operations)
Day −1: DAOY was plated on three 96-well plates at 5×10^3 cells/well. These three plates were for use on day 0, day 1 and day 3, respectively. As a medium, 10% FBS-containing DMEM was used.
Day 0: MTT assay was carried out using the plate for day 0 to measure the activity at the basal cell count. With respect to the plates for day 1 and day 3, the compound was added to give a concentration of 100 μg/ml (as controls, DMEM alone and DMEM containing DMSO (solvent) were used). Specifically, the compound-containing DMEM was prepared in advance, and the compound was added to the plate through medium exchange. At this time, FBS concentration was lowered to 5% in order to prevent the masking of the compound's effect due to excessive growth signals. Day 1: MTT assay was carried out using the plate for day 1. Day 3: MTT assay was carried out using the plate for day 3. Data Analysis: Relative growths on day 1 and day 3 were calculated, with the average of MTT activities (Ab 570 nm) on day 0 in the rows of wells for addition of the respective compounds being taken, as 100.
Each experiment was performed in quadruple and each run was repeated three times. Relative values based on the values of day 0 were used to calculate data for n=12 wells and statistical tests were performed.
Test was by t-test between the cell count with DMEM alone and the cell count with the compound or DMSO.
MIT Assay: A technique for cell counting using the respiratory activity of mitochondria as an indicator. When the respiratory activity is high (the value at Ab 570 nm is high), it can be interpreted that the cell count is large.

[2] = test system: Nav 1.8; assay: Quantitative real time PCR of Nav 1.8 mRNA in dorsal root ganglia after nerve injury; format: in vivo, C57BL male mice; details: 0.5 nmol i.t., Experiment (5)
[3] = test system: neuropathic pain model by partial sciatic nerve ligation; assay: Electrical stimulation-induced paw withdrawal (EPW) test, hypoesthesia after nerve injury; format: in vivo, C57BL male mice
[4] = test system: DAOY (human medulloblastoma cell strain); assay: MTT assay, growth inhibition against human medulloblastoma cells (Example 3); format: cell-based; details: 100 μg/ml; for cells three days after addition of compound: day 3
Experimental: Compounds: No. 5, No. 15, No. 23, NCR 6, NCR 7, NCR 11, NCR 13, NCR 14, NCR 15
Cell: DAOY (human medulloblastoma cell strain)
as §1
Reagent for cell counting: MTT cell counting kit (Nacalai Tesque) *Hereinafter, referred to as MTT assay.
DAOY was plated on three 96-well plates at 5×10^3 cells/well. These three plates were for use on day 0, day 1 and day 3, respectively. As a medium, 10% FBS-containing DMEM was used.
The medium in the plate for day 0 was exchanged with 5% FBS-containing DMEM, and cells were cultured therein for 30 minutes. Then, MTT assay was carried out to measure the activity at the basal cell count.
With respect to the plates for day 1 and day 3, the medium was exchanged with 5% FBS-containing medium, and the compound was added simultaneously at this time (as a control, DMSO (the solvent) alone was added).
MTT assay was carried out using the plate for day 1.
MTT assay was carried out using the plate for day 3.
Relative growths on day 1 and day 3 were calculated, with the average of MTT activities (Ab 570 nm) […] in the rows of wells for the respective compounds being taken as 100. Each experiment was performed in quadruple.
Statistical test was performed by compound-treated cells and DMSO-treated cells.

SMILES | cell growth on day 1 (MTT assay) [1] | cell growth / cell state on day 3 (MTT assay, observation) [1] | effect on the lowering of expression of Nav 1.8 mRNA due to nerve injury [2] | measured values of MTT assay compared to DMSO-added cells [4] | cells three days after addition of compound [4] | further results
Cc1cc(C(=O)N2CC(C)CC(C)C2)ccc1[N+](=O)[O-] (stereo not drawn) [compound 155, 3,5-dimethylpiperidyl 3-methyl-4-nitrophenyl ketone] | Cell growth was inhibited | Cell growth was inhibited | remarkable inhibitory effect |  |  | statistical analysis of pain threshold values at 3 days versus 5 days after nerve injury, EPW test ([3]; 0.5 nmol i.t. once per day): significant difference; effect on hypoesthesia (pain threshold in response to C-fiber stimulation), EPW test ([3]; 0.5 nmol i.t. once per day from 3 days after nerve injury, observed 4 and 5 days after injury): tendency of recovery from hypoesthesia; effect on hypoesthesia (pain threshold) after systemic administration ([3]; 5 mg/kg intraperitoneally, on day 3, 4 and 5 after nerve injury, n=3): time-dependent recovery from hypoesthesia
CC1CC(C)CN(C(=O)c2ccc(Cl)c([N+](=O)[O-])c2)C1 (stereo not drawn) [compound 5, 3,5-dimethylpiperidyl 4-chloro-3-nitrophenyl ketone] |  |  |  | significant decrease |  | measured values of MTT assay during the experiment period ([4]; day 0 to day 3): did not change greatly
CC1CC(C)CN(CC(=O)c2ccc(OC(F)F)cc2)C1 (stereo not drawn) [compound A28, 1-[4-(difluoromethoxy)phenyl]-2-(3,5-dimethylpiperidyl)ethan-1-one] | transient, abnormal cell growth | appeared morphologically dead | did not exhibit a significant change |  |  | 
CC1CC(C)CN(C(=O)c2ccc(F)cc2)C1 (stereo not drawn) [compound 15, 3,5-dimethylpiperidyl 4-fluorophenyl ketone] |  |  |  | significant decrease | almost all cells had died | 
CC1CN(CC(=O)Nc2ccc(F)cc2Cl)CC(C)O1 (stereo not drawn) [compound 23, 2-(2,6-dimethylmorpholin-4-yl)-N-(2-chloro-4-fluorophenyl)acetamide] |  |  |  | significant decrease | almost all cells had died | 
